Laboratory results published in publication doi:10.1101/2022.08.09.503213 (bioRxiv, 2022).
Results are given in words; binding and its absence hold for the method and conditions named. Some results given as binding are weak or reduced against the parent protein; the word gives no strength. Tags and fused reporters may be left off the sequences shown.

Chains of the proteins cited; added tags and fusions are not shown. Lines headed by an entry give the natural chain unless they say otherwise; changes in a name come on top.
UniProt Q96RY7, whole entry: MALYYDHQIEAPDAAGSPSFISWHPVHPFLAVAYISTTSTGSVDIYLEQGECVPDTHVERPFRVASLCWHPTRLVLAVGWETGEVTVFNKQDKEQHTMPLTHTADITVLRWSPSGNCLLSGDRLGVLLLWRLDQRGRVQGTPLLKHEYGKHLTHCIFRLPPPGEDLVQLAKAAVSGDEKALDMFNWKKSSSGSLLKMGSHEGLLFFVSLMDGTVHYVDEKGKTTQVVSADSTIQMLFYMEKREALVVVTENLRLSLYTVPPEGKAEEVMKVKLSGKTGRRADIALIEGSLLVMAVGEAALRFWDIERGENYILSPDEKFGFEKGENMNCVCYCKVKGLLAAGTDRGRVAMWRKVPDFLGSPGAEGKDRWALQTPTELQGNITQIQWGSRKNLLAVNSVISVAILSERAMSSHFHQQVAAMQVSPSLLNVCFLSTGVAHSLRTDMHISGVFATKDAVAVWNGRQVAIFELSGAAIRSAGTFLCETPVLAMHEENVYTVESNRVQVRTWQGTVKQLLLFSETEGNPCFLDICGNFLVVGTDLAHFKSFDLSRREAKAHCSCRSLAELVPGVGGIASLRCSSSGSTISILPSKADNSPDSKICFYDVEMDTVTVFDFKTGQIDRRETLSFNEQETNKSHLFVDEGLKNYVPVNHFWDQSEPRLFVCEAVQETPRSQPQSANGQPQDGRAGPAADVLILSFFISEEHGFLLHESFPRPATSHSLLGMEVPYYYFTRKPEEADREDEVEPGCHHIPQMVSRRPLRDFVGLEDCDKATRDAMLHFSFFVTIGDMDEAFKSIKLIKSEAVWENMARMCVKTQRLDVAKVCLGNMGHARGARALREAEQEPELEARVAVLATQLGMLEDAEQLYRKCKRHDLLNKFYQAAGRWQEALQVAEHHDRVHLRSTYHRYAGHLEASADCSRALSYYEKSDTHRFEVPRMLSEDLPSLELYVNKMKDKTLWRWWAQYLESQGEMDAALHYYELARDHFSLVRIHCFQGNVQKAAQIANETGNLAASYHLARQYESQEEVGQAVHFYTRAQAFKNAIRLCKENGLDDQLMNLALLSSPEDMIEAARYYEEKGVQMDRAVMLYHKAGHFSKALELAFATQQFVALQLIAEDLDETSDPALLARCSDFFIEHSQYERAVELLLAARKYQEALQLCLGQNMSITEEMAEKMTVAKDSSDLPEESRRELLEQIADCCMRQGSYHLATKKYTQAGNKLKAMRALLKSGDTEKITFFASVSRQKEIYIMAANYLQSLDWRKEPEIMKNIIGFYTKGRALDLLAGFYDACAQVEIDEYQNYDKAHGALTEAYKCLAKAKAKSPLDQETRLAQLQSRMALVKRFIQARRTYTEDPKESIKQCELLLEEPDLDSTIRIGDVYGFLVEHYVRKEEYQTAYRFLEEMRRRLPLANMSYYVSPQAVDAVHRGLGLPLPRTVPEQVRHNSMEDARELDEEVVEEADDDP

T1: IFT122 (untagged) (human) (UniProt Q9HBG6)
T1 sequence: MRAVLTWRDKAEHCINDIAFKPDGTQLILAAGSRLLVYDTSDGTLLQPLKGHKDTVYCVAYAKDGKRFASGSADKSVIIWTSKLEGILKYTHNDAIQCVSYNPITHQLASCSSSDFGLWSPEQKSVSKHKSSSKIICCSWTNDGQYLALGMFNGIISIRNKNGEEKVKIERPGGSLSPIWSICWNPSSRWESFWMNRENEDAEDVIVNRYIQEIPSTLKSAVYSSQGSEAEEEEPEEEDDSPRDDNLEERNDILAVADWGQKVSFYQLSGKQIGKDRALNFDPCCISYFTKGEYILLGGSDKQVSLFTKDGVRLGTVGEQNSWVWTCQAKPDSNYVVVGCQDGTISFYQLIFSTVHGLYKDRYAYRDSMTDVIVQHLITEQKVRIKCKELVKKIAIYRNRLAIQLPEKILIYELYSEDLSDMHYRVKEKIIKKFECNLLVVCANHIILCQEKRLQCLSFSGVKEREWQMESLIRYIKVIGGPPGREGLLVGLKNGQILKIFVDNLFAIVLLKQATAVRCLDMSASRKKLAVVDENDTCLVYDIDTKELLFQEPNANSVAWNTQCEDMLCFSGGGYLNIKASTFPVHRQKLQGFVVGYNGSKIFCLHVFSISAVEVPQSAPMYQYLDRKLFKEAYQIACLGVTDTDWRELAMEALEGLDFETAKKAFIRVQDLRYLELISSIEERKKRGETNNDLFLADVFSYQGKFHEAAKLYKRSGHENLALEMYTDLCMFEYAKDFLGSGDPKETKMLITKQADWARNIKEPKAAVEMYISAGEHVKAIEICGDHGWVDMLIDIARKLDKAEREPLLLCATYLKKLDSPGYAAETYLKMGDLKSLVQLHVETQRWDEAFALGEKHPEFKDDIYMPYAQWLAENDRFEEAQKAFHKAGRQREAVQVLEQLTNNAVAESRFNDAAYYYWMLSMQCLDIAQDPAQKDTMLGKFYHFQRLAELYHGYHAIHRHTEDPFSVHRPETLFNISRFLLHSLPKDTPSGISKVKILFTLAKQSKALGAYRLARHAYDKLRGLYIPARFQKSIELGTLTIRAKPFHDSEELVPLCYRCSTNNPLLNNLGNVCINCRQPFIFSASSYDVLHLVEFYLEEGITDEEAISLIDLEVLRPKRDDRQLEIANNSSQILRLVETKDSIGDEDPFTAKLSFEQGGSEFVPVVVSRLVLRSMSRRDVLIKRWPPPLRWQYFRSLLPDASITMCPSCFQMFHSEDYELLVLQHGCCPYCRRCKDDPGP

B1: IFT139 (from ^ZZ-SNAPIFT139, TEV-cleaved) (protein, UniProt Q7Z4L5 1-1316)
chain: MDSQELKTLINYYCQERYFHHVLLVASEGIKRYGSDPVFRFYHAYGTLMEGKTQEALREFEAIKNKQDVSLCSLLALIYAHKMSPNPDREAILESDARVKEQRKGAGEKALYHAGLFLWHIGRHDKAREYIDRMIKISDGSKQGHVLKAWLDITRGKEPYTKKALKYFEEGLQDGNDTFALLGKAQCLEMRQNYSGALETVNQIIVNFPSFLPAFVKKMKLQLALQDWDQTVETAQRLLLQDSQNVEALRMQALYYVCREGDIEKASTKLENLGNTLDAMEPQNAQLFYNITLAFSRTCGRSQLILQKIQTLLERAFSLNPQQSEFATELGYQMILQGRVKEALKWYKTAMTLDETSVSALVGFIQCQLIEGQLQDADQQLEFLNEIQQSIGKSAELIYLHAVLAMKKNKRQEEVINLLNDVLDTHFSQLEGLPLGIQYFEKLNPDFLLEIVMEYLSFCPMQPASPGQPLCPLLRRCISVLETVVRTVPGLLQTVFLIAKVKYLSGDIEAAFNNLQHCLEHNPSYADAHLLLAQVYLSQEKVKLCSQSLELCLSYDFKVRDYPLYHLIKAQSQKKMGEIADAIKTLHMAMSLPGMKRIGASTKSKDRKTEVDTSHRLSIFLELIDVHRLNGEQHEATKVLQDAIHEFSGTSEEVRVTIANADLALAQGDIERALSILQNVTAEQPYFIEAREKMADIYLKHRKDKMLYITCFREIAERMANPRSFLLLGDAYMNILEPEEAIVAYEQALNQNPKDGTLASKMGKALIKTHNYSMAITYYEAALKTGQKNYLCYDLAELLLKLKWYDKAEKVLQHALAHEPVNELSALMEDGRCQVLLAKVYSKMEKLGDAITALQQARELQARVLKRVQMEQPDAVPAQKHLAAEICAEIAKHSVAQRDYEKAIKFYREALVHCETDNKIMLELARLYLAQDDPDSCLRQCALLLQSDQDNEAATMMMADLMFRKQDYEQAVFHLQQLLERKPDNYMTLSRLIDLLRRCGKLEDVPRFFSMAEKRNSRAKLEPGFQYCKGLYLWYTGEPNDALRHFNKARKDRDWGQNALYNMIEICLNPDNETVGGEVFENLDGDLGNSTEKQESVQLAVRTAEKLLKELKPQTVQGHVQLRIMENYCLMATKQKSNVEQALNTFTEIAASEKEHIPALLGMATAYMILKQTPRARNQLKRIAKMNWNAIDAEEFEKSWLLLADIYIQSAKYDMAEDLLKRCLRHNRSCCKAYEYMGYIMEKEQAYTDAALNYEMAWKYSNRTNPAVGYKLAFNYLKAKRYVDSIDICHQVLEAHPTYPKIRKDILDKARASLRP
B2: IFT144ΔN^FLAG (IFT144 lacking the N-terminal β-propeller domain, residues 2–349 inclusive) (domain or fragment, UniProt Q8NEZ3)
chain: MLPILGDACSTRIAYLTSLLEVTVANPVEGELPITVSVDVEPNFVAVGLYHLAVGMNNRAWFYVLGENAVKKLKDMEYLGTVASICLHSDYAAALFEGKVQLHLIESEILDAQEERETRLFPAVDDKCRILCHALTSDFLIYGTDTGVVQYFYIEDWQFVNDYRHPVSVKKIFPDPNGTRLVFIDEKSDGFVYCPVNDATYEIPDFSPTIKGVLWENWPMDKGVFIAYDDDKVYTYVFHKDTIQGAKVILAGSTKVPFAHKPLLLYNGELTCQTQSGKVNNIYLSTHGFLSNLKDTGPDELRPMLAQNLMLKRFSDAWEMCRILNDEAAWNELARACLHHMEVEFAIRVYRRIGNVGIVMSLEQIKGIEDYNLLAGHLAMFTNDYNLAQDLYLASSCPIAALEMRRDLQHWDSALQLAKHLAPDQIPFISKEYAIQLEFAGDYVNALAHYEKGITGDNKEHDEACLAGVAQMSIRMGDIRRGVNQALKHPSRVLKRDCGAILENMKQFSEAAQLYEKGLYYDKAASVYIRSKNWAKVGDLLPHVSSPKIHLQYAKAKEADGRYKEAVVAYENAKQWQSVIRIYLDHLNNPEKAVNIVRETQSLDGAKMVARFFLQLGDYGSAIQFLVMSKCNNEAFTLAQQHNKMEIYADIIGSEDTTNEDYQSIALYFEGEKRYLQAGKFFLLCGQYSRALKHFLKCPSSEDNVAIEMAIETVGQAKDELLTNQLIDHLLGENDGMPKDAKYLFRLYMALKQYREAAQTAIIIAREEQSAGNYRNAHDVLFSMYAELKSQKIKIPSEMATNLMILHSYILVKIHVKNGDHMKGARMLIRVANNISKFPSHIVPILTSTVIECHRAGLKNSAFSFAAMLMRPEYRSKIDAKYKKKIEGMVRRPDISEIEEATTPCPFCKFLLPECELLCPGCKNSIPYCIATGRHMLKDDWTVCPHCDFPALYSELKIMLNTESTCPMCSERLNAAQLKKISDCTQYLRTEEEL

Key:
[1] = molecular target: T1, IFT122 (untagged) (human); experiment: cryo-EM structure
[2] = molecular target: IFT140 from ^ZZIFT140 (N-terminal ZZ-tag) (human) (UniProt Q96RY7); experiment: cryo-EM structure

Row | Binder | binding [1] | binding [2]
1 | B1 | binds | 
2 | B2 |  | binds
